In all, about 360,000 compounds went through this assay and about 7,500 (2.1%) were called active. The shares of active, inactive and inconclusive entries below differ from those in the screen. Calls follow the shape of the dose curve; as a rule, active = well fitted inhibition curve with a large enough effect; inconclusive = small, poorly fitted or top-dose-only effect, or effect the other way; inactive = flat fitted curve, though single readings scatter. Potencies beside an inconclusive call are fits to weak or partial responses and may not hold up.
Assay: Nrf2 qHTS screen for inhibitors; also: nearly all actives have a fitted effect of over 60% in size
Details: A549 ARE-Fluc reporter, luciferase luminescence, 18-24 h; activity change, negative = inhibition: at 46 µM (top of the series)
Procedure, shortened: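 Reporter: ARE-Fluc in A549. Exposure: 18-24 h, 37 °C, 5% CO2, 5% FBS OPTI-MEM. Readouts: fluorescent cytotoxicity (CellTiter-Fluor), then luminescent Nrf2 signal after BugLite.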
% is scaled to controls: 0 for no effect and ±100 for the full control effect; potency is read from the fitted curve at half-maximal effect.

| SMILES | activity change, negative = inhibition | Potency |
| --- | --- | --- |
| COC(=O)c1ccc(NC(=O)N(c2ccccc2)c2ccccc2)cc1 | inactive: -5.34% | – |
| O=C(Nc1cccc(S(=O)(=O)N2CCCCCC2)c1)c1cc(=O)c2ccccc2o1 | – | active: 18.4 µM |
| Cc1sc2ncnc(SCC(=O)NC(=O)c3cccn3C)c2c1C | – | inconclusive: 1.84 µM [falling, partial curve, poor fit] |
| COC(=O)CCC(=O)c1oc2ccc(OC)cc2c1N | – | inconclusive: 20.6 µM [activator, partial curve, poor fit] |
| O=S1(=O)C=C(Sc2nc3cc(Cl)ccc3o2)c2ccccc21 | – | inconclusive: 29.1 µM [falling, single point] |
| O=C(Nc1ccc(Oc2ccccc2)nc1)C1CCN(Cc2cccc(F)c2)CC1 | – | active: 18.4 µM |
| CN(C(=O)C1CCCN1S(=O)(=O)c1ccc(Cl)cc1)c1ccccc1 (centres undefined) | inactive: 13.3% | – |
| Cc1cccc(C(=O)NCc2nnc(SCC(=O)Nc3ccccc3F)n2-c2ccccc2)c1 | inactive: 11.4% | – |
| CCCOC(=O)Nc1nc(-c2ccc(C)cc2)c(C)s1 | – | inconclusive: 23.1 µM [falling, partial curve, poor fit] |
| CCOc1ccc(-c2n[nH]c3c2C(c2cccs2)N(c2ccc(Br)cc2)C3=O)cc1 (centres undefined) | – | active: 23.1 µM |
| COc1cc(C)ccc1OCc1cc(C(=O)N(Cc2nccn2C)C(C)C)no1 | – | inconclusive: 5.17 µM [activator, partial curve] |
| COc1ccc(N2CCN(C(=O)Nc3ccc(Cl)cc3)CC2)cc1 | – | inconclusive: 23.1 µM [falling, partial curve, poor fit] |
| C=CCSc1ncccc1C(=O)NCc1ccccc1 | – | inconclusive: 0.0046 µM [falling, full curve, poor fit] |
| COc1ccc(Cl)cc1C(=O)NCC(c1ccco1)N1CCCC1 (centres undefined) | inactive: 1.91% | – |
| CCCCC(=O)Nc1ccc2oc(-c3ccncc3)nc2c1 | – | inconclusive: 0.92 µM [falling, partial curve, poor fit] |
| CC(=O)Oc1cccc2c1C(=O)c1c(OC(C)=O)cc(C(=O)O)cc1C2=O | – | inconclusive: 23.1 µM [falling, single point] |
| Cc1ccccc1NC(=O)CSCn1nnc2c(=O)[nH]c(Cc3ccc(F)cc3)nc21 | inactive: 8.1% | – |
| C=CCN(c1ccccc1)S(=O)(=O)c1cccc(C(=O)Nc2nc3ccccc3[nH]2)c1 | – | active: 2.91 µM |
| COC(=O)c1[nH]c2ccc(C)cc2c1NC(=O)CN1CCN(c2ccc(F)cc2)CC1 | – | active: 8.91 µM |
| O=S(=O)(c1ccccc1Cl)N1CCCC1c1nc(-c2ccccc2Cl)no1 (centres undefined) | – | active: 16.4 µM |
| O=C(CN1CCN(Cc2ccccc2Cl)CC1)N=Nc1c(O)[nH]c2ccccc12 | – | inconclusive: 2.59 µM [falling, full curve, poor fit] |
| O=C(Nc1ccc(-c2nnc(-c3ccccc3)o2)cc1)C(F)(F)F | – | inconclusive: 1.3 µM [activator, full curve] |
| CSc1nnc(-c2cc(-c3ccc(C)cc3)nc3ccccc23)o1 | – | inconclusive: 4.61 µM [falling, full curve] |

| SMILES | activity change, negative = inhibition | Potency |
| --- | --- | --- |
| CCOC(=O)c1[nH]c2c(c1C)C(=O)CC(c1ccco1)C2 (centres undefined) | – | inconclusive: 4.11 µM [activator, full curve, poor fit] |
| N#CC(C(=O)NC1CCCCC1)=C1CCCCCC1 | inactive: 15.4% | – |
| CCc1ccc(NC(=O)C(=O)NCCN2CCN(S(=O)(=O)c3ccccc3)CC2)cc1 | inactive: -11.3% | – |
| O=C(CC1OC(=O)c2ccccc21)Nc1cc(Cl)ccc1N1CCOCC1 (centres undefined) | inactive: -29.6% | – |
| CCN(C(=O)CN1C(=O)/C(=C/c2ccccc2)SC1=S)C1CCS(=O)(=O)C1 (centres undefined) | – | inconclusive: 18.4 µM [activator, partial curve] |
| Cn1c(=O)c2c(nc(CN3CCc4ccccc4C3)n2CC(=O)c2ccccc2)n(C)c1=O | – | inconclusive: 29.1 µM [falling, single point] |
| CCOc1ccc(/C(O)=C2/C(=O)C(=O)N(c3ccccn3)C2c2ccc(Cl)cc2)c(C)c1 (centres undefined) | – | inconclusive: 23.1 µM [activator, single point] |
| Cc1ccc(-c2nc(CSCC(=O)NCc3cccnc3)c(C)o2)cc1 | – | inconclusive: 29.1 µM [falling, single point] |
| OCCNc1nc(Nc2ccc(Br)cc2)nc2ccccc12 | – | inconclusive: 0.092 µM [activator, full curve, poor fit] |
| Cc1cc(S(=O)(=O)N2CCOCC2)ccc1OCC(=O)NCc1ccco1 | inactive: -4.8% | – |
| O=c1c2ccccc2nc(/C=C/c2cccnc2)n1Cc1ccccc1 | inactive: -1.74% | – |
| COc1ccc(C(=O)CNc2ccccc2Br)cc1 | – | inconclusive: 29.1 µM [activator, single point] |
| Cc1ccc(NC(=S)N/N=C/c2c(Cl)cccc2Cl)c(C)c1 | – | inconclusive: 5.17 µM [activator, partial curve, poor fit] |
| O=C(Cc1ccccc1)NN1C(=O)/C(=C/c2ccc(C(=O)O)cc2)SC1=S | inactive: -10.3% | – |
| CCOc1ccc(NCc2cccn2-c2nnc(N3CCC(C(=O)NCCc4ccc(OCC)c(OCC)c4)CC3)s2)cc1 | – | inconclusive: 29.1 µM [falling, single point] |
| CC(=O)Nc1ccc(S(=O)(=O)Nc2nc3ccccc3nc2Nc2ccc(O)cc2)cc1 | – | inconclusive: 16.4 µM [falling, single point] |
| CC(C)c1ccc(N=C2NN=C(c3cccs3)CS2)cc1 | – | inconclusive: 7.31 µM [activator, partial curve] |
| CC1CN(C(=O)Nc2ccc(C(=O)NCCc3ccc(Cl)cc3)cc2)c2ccccc2S1 (centres undefined) | inactive: 4.7% | – |
| CN(Cc1ccccc1)c1ncc(C=O)s1 | – | inconclusive: 20.6 µM [activator, partial curve, poor fit] |
| CC1(C)Oc2ccc(C(=O)Nc3ccccc3)cc2N(CC#N)C1=O | – | inconclusive: 0.411 µM [activator, full curve] |
| COc1ccc(/C=C/C2=Nc3ccccc3NC(C)(C)C2)cc1OC | inactive: 21.7% | – |
| O=C(CCCCl)Nc1nc(-c2ccc3c(c2)OCCO3)cs1 | – | inconclusive: 16.4 µM [activator, partial curve] |
| COc1ccc2ncc3c(-c4ccccc4)nn(-c4ccc(C)c(C)c4)c3c2c1 | inactive: -25% | – |

One compound at a time (already shown):
`N#CC(C(=O)NC1CCCCC1)=C1CCCCCC1` as listed: activity change, negative = inhibition: inactive: 15.4%
`CC1(C)Oc2ccc(C(=O)Nc3ccccc3)cc2N(CC#N)C1=O` as listed: Potency: inconclusive: 0.411 µM [activator, full curve]
`Cn1c(=O)c2c(nc(CN3CCc4ccccc4C3)n2CC(=O)c2ccccc2)n(C)c1=O` as listed: Potency: inconclusive: 29.1 µM [falling, single point]
`CCOc1ccc(/C(O)=C2/C(=O)C(=O)N(c3ccccn3)C2c2ccc(Cl)cc2)c(C)c1` (centres undefined) as listed: Potency: inconclusive: 23.1 µM [activator, single point]

More records:

| SMILES | activity change, negative = inhibition | Potency |
| --- | --- | --- |
| CCOCCCn1c(SCc2nc3ccccc3s2)nc2ccccc2c1=O | – | inconclusive: 29.1 µM [falling, single point] |
| CCn1c(=O)c(C(=O)CN2CCCc3ccccc32)c(N)n(Cc2ccccc2)c1=O | – | active: 16.4 µM |
| Cc1ccc[n+](CC(=O)/C=C2\N(C)c3ccccc3C2(C)C)c1 | – | inconclusive: 8.2 µM [falling, partial curve, poor fit] |
| Cc1cc(NS(=O)(=O)c2ccc(NC(=O)c3cccc(OC(F)F)c3)cc2)nc(C)n1 | – | inconclusive: 3.26 µM [falling, partial curve, poor fit] |
| O=C(Cc1ccc(F)cc1)Nc1nc(-c2ccc(F)cc2)cs1 | – | inconclusive: 7.31 µM [falling, partial curve] |
| COc1ccc(NC(=O)c2cc3ccccc3[nH]2)cc1 | – | inconclusive: 0.411 µM [activator, full curve, poor fit] |
| COc1ccccc1NC(=S)NNC(=O)c1ccc(O)cc1 | – | inconclusive: 2.91 µM [activator, partial curve] |
| O=C(c1ccc2c(=O)n3c(nc2c1)CCCCC3)N1CCN(c2ccccc2)CC1 | inactive: -2.78% | – |
| Cc1ccc(C(=O)Nc2nnc(SCC(=O)N3CCCc4ccccc43)s2)cc1 | – | inconclusive: 29.1 µM [falling, single point] |
| Cc1cc(-c2ccccc2)nc2cc(C(=O)Nc3ccc(Cl)c(Cl)c3)nn12 | – | inconclusive: 18.4 µM [falling, partial curve, poor fit] |
| CC(=O)c1sc(NC(=O)c2ccccc2F)nc1C | – | inconclusive: 20.6 µM [activator, single point] |
| Cc1ccc(C(=O)NNC(=O)c2cccc(S(=O)(=O)N3CCN(c4ccccc4)CC3)c2)cc1 | inactive: -27.7% | – |
| COc1ccc(CCN2CCCC(CN(C)C(=O)c3ccoc3)C2)cc1 (centres undefined) | – | inconclusive: 9.2 µM [activator, partial curve] |
| Cc1n[nH]c(=S)n1/N=C/c1ccccc1OCc1ccc(Cl)cc1Cl | – | inconclusive: 29.1 µM [falling, single point] |
| CC(C)(C)OC(=O)N1CCC(c2c(C(=O)NCCc3ccsc3)cnn2-c2ccc(F)cc2F)CC1 | – | inconclusive: 1.84 µM [activator, partial curve] |
| Cn1c(-c2ccccn2)[n+](C)c2ccccc21 | – | active: 5.17 µM |
| COc1ccc(N2CC(C(=O)Nc3ccccc3C(=O)NCc3ccco3)CC2=O)cc1 (centres undefined) | inactive: 0.709% | – |
| FC(F)Oc1ccc(-c2csc(=Nc3cccnc3)n2CC2CCCO2)cc1 (centres undefined) | – | active: 14.6 µM |
| COc1ccc(/C=N/NC(=O)Cc2cccs2)cc1 | – | inconclusive: 5.17 µM [activator, partial curve] |
| CCOC(=O)c1c(Nc2ccc(OCC)cc2)nnc(-c2ccccc2)c1-c1ccccc1 | – | inconclusive: 9.2 µM [falling, partial curve, poor fit] |
| CN1CCc2c(sc(NC(=O)C3CCCCC3)c2C(N)=O)C1 | – | inconclusive: 32.6 µM [activator, partial curve, poor fit] |
| Cc1nc2cc(NC(=O)Nc3cccc([N+](=O)[O-])c3)ccc2n1C | – | inconclusive: 18.4 µM [activator, partial curve, poor fit] |
| CN1C(=O)CSc2ccc(NC(=O)N3CCN(c4ccccn4)CC3)cc21 | – | inconclusive: 25.9 µM [falling, single point] |

Source: PubChem BioAssay AID504444 (National Center for Advancing Translational Sciences (NCATS), 2011)
